# Experimental data from article PMC5996148.
# The chains behind the UniProt entries cited, without tags or fusion partners. Where a name states a change or a piece, a line headed by the entry shows the natural chain unless it says otherwise.
# UniProt P49773: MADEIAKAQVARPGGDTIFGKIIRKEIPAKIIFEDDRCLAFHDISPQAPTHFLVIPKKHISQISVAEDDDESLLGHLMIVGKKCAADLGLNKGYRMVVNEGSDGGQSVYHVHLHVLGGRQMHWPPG
# UniProt Q15651: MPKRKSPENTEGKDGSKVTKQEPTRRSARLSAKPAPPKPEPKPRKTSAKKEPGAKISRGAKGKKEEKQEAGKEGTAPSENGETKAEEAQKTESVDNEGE
# UniProt P09651: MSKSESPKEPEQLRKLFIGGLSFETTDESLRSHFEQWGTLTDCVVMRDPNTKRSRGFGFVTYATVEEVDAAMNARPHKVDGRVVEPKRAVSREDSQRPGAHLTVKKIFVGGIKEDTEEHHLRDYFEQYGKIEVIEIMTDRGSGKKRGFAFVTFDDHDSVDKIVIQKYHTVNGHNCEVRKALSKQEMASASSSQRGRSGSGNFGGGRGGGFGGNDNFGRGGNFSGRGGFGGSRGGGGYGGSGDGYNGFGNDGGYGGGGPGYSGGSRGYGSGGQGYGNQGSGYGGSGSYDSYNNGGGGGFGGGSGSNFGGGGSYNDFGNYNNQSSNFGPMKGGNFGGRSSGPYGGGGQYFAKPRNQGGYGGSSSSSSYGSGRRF
# UniProt P14625, whole entry: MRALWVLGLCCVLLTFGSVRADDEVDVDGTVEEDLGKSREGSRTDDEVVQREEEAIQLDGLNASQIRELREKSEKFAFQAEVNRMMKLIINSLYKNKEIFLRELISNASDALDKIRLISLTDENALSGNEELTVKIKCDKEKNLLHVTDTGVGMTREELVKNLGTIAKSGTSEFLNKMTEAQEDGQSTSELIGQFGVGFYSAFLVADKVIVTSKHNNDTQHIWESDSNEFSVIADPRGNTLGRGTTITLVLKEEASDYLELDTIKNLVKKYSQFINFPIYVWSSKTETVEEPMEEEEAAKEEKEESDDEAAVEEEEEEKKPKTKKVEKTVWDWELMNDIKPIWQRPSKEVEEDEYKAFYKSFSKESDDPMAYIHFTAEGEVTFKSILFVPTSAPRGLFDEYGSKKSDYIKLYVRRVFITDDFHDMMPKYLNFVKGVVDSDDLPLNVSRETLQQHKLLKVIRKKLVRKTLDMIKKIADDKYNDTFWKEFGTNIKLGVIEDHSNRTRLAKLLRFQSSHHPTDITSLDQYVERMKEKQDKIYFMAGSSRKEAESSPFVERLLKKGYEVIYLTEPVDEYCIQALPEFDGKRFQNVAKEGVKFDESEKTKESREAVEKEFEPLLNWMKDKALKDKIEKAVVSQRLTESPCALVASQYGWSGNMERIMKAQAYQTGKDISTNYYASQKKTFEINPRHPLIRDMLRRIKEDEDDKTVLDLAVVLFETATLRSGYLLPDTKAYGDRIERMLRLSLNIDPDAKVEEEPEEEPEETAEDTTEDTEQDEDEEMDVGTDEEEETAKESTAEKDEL
# UniProt P38646: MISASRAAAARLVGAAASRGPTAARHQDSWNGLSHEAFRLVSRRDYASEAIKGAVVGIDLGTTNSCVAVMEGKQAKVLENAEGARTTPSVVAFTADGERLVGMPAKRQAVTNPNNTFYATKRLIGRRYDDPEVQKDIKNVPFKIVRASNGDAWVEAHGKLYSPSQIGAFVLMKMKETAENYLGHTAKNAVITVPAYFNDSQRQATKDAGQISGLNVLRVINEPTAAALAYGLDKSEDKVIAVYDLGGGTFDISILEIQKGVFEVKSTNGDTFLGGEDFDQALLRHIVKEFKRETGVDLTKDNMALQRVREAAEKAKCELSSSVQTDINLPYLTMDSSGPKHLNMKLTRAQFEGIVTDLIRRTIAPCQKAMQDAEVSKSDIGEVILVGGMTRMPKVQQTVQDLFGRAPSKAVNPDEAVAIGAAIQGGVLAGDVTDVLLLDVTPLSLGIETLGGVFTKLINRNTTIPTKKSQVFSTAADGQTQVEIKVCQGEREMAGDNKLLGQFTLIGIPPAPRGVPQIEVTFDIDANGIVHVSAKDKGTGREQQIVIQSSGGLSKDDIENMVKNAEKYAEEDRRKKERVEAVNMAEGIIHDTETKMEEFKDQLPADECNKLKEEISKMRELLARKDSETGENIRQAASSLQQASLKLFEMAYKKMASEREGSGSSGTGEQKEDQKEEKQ
# This is one part of the list. For some assays here: Construct or isoform of the protein are uncertain.
# Tests used:
# Assay in all cases: protein microarray (ProtoArray v5.0), streptavidin-Alexa Fluor 647
# Conditions in all cases: 3'-biotin; 20 mM Tris (pH 7.5), 5 mM MgCl2, 100 mM KCl, 0.1% Tween-20, A/T-rich and random oligonucleotide blockers; temperature not stated; high values mean tight binding
# HGS (human) = test system: HGS (human)
# HINT1 = HINT1 (UniProt P49773)
# HIP1 (human) = test system: HIP1 (human)
# HIP2 (human) = test system: HIP2 (human)
# HK1 (human) = test system: HK1 (human)
# HKDC1 (human) = test system: HKDC1 (human)
# [1] = test system: HLA class I histocompatibility antigen, Cw-7 alpha chain (human)
# HMG20B (human) = test system: HMG20B (human)
# HMGB2 = target: T1, HMGB2 (UniProt P26583)
# T1 sequence: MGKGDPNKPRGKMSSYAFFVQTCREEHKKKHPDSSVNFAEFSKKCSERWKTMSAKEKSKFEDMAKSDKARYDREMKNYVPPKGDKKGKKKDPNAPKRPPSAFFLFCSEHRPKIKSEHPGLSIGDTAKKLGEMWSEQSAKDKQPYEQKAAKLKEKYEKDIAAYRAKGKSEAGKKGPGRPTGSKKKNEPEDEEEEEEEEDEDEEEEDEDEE
# HMGN3 = HMGN3 (UniProt Q15651)
# HN1 (human) = test system: HN1 (human)
# HNRNPA1 = HNRNPA1 (UniProt P09651)
# HP1BP3 = target: T2, HP1BP3 (UniProt Q5SSJ5)
# T2 sequence: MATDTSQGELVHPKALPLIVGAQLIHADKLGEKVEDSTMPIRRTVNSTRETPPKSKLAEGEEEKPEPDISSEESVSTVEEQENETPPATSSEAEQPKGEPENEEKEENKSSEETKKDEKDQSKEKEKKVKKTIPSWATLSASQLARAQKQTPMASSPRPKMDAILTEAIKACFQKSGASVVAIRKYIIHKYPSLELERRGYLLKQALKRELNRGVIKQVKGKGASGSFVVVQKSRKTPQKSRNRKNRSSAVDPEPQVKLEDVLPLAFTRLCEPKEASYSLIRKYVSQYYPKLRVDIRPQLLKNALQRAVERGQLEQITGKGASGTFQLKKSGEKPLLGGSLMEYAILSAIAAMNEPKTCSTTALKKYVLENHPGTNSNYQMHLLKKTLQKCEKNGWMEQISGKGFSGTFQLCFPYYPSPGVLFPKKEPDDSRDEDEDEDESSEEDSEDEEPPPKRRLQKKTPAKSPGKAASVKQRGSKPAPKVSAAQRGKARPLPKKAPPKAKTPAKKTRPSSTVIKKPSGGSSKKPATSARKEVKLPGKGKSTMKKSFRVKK
# HPCAL1 (human) = test system: HPCAL1 (human)
# HPGD (human) = test system: HPGD (human)
# HS2ST1 (human) = test system: HS2ST1 (human)
# HS3ST1 (human) = test system: HS3ST1 (human)
# HSBP1 (human) = test system: HSBP1 (human)
# HSP90B1 = HSP90B1 (UniProt P14625)
# HSPA9 = HSPA9 (UniProt P38646)
sequence,measurement,setting,value
GGTGACAGGGGTATGGGGAGGGG [G4-2 biotinylated (Ct1)],binding signal,HGS (human),-0.382 z-score
same,binding signal,HINT1,-0.389 z-score
same,binding signal,HIP1 (human),-0.389 z-score
same,binding signal,HIP2 (human),-0.378 z-score
same,binding signal,HK1 (human),-0.387 z-score
same,binding signal,HKDC1 (human),-0.381 z-score
same,binding signal,[1],-0.381 z-score
same,binding signal,HMG20B (human),-0.371 z-score
same,binding signal,HMGB2,6.19 z-score
same,binding signal,HMGN3,4.29 z-score
same,binding signal,HN1 (human),-0.395 z-score
same,binding signal,HNRNPA1,5.27 z-score
same,binding signal,HP1BP3,6.79 z-score
same,binding signal,HPCAL1 (human),-0.394 z-score
same,binding signal,HPGD (human),-0.384 z-score
same,binding signal,HS2ST1 (human),-0.372 z-score
same,binding signal,HS3ST1 (human),-0.371 z-score
same,binding signal,HSBP1 (human),-0.389 z-score
same,binding signal,HSP90B1,-0.364 z-score
same,binding signal,HSPA9,-0.373 z-score

# 2 entries from above, with tabs:
sequence	measurement	setting	value
GGTGACAGGGGTATGGGGAGGGG [G4-2 biotinylated (Ct1)]	binding signal	HIP2 (human)	-0.378 z-score
same	binding signal	HK1 (human)	-0.387 z-score
